The source of these data is patent publication US20030157069A1.

Sequences of proteins named here, by UniProt entry; tags and fusion partners are left off. A change or cut given only in a name is not applied to a line headed by its entry.
UniProt Q00342: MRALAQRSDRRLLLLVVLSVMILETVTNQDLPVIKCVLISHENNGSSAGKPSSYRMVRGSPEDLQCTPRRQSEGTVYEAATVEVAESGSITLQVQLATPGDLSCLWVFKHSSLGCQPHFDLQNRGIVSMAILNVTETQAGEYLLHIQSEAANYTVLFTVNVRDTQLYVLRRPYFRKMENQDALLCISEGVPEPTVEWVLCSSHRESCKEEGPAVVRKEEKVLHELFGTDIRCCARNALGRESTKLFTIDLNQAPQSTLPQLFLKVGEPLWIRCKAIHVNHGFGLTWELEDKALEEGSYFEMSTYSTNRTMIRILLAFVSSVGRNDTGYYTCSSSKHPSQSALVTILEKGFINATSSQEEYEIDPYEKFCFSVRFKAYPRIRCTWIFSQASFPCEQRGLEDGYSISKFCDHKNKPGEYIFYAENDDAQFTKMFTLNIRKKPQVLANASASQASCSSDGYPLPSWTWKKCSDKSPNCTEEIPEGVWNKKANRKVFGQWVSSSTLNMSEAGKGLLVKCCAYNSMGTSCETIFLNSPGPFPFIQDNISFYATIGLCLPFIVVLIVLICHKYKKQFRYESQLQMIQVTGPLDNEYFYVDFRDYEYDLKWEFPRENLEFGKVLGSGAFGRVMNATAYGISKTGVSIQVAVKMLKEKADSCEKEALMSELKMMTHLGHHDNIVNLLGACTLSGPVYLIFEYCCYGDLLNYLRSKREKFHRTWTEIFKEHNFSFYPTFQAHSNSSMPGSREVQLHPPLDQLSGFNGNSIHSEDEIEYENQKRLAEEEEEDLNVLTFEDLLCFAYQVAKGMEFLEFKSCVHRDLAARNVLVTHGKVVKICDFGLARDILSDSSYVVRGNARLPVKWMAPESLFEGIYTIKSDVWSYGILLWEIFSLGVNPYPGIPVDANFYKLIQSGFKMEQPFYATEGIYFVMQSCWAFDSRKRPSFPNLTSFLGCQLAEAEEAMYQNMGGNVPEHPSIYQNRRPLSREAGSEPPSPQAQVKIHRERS

The assay has as its target T1, murine flt3-ligand of clone #6C (murine) (UniProt P49772).
T1 sequence: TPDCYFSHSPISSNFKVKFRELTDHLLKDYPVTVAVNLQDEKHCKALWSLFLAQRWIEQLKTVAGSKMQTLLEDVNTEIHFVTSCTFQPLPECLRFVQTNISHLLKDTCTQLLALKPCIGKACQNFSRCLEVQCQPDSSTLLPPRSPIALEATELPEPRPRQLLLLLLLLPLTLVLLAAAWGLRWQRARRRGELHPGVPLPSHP
Briefly: slide autoradiography: transfected CV-1/EBNA-1 cells incubated with flt3:Fc (1 ug/ml), detected with 125I-mouse anti-human Fc antibody.

Results are given in words; binding and its absence hold for the method and conditions named. Some entries that bind do so weakly or less than the wild type.

In the case of “soluble murine flt3-receptor:Fc fusion protein (from UniProt Q00342 28-544; P01857 99-330)”, the binding result is recorded as “binds”.
